# Literature values, collected in patent US9795580B2, “Ketone supplements for treatment of angelman syndrome” (priority 2015, dated 2017).
# At least one structure is not confirmed: it was looked up by name or label, or the drawing left a doubt.
# Settings: cited from earlier work
smiles,measurement,value
"CC(=O)CC(=O)OCCC(C)OC(=O)CC(C)=O (stereo not shown) [BD-AcAc2, R,S-1,3-butanediol acetoacetate diester]",lipophilicity,lipophilic
